Measurements from the supplement of paper PMC10849652.
Some of the results follow.

The chains behind the UniProt entries cited, without tags or fusion partners. Where a name states a change or a piece, a line headed by the entry shows the natural chain unless it says otherwise.
UniProt Q9NNW7, whole entry, looked up: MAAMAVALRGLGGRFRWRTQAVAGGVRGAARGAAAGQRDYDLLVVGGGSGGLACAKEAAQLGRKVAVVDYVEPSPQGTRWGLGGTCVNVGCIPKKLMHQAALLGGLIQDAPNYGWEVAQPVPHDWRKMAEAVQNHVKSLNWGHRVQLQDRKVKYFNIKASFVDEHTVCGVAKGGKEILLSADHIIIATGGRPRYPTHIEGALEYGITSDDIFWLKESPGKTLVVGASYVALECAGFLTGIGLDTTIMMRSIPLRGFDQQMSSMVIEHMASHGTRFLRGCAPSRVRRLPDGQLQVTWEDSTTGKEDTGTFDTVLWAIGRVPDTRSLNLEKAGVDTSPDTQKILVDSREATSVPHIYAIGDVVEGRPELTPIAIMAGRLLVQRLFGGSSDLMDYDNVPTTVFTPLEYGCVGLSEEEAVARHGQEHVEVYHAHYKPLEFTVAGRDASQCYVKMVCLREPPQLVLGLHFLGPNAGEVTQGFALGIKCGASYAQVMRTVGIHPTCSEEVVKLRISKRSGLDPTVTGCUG
UniProt P15374: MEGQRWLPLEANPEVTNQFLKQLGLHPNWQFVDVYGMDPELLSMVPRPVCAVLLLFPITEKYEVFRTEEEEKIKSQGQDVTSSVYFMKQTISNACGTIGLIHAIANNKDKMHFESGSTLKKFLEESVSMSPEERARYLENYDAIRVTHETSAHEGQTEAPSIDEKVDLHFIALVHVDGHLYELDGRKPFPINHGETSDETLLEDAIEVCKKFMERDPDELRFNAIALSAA
UniProt Q9NPD8: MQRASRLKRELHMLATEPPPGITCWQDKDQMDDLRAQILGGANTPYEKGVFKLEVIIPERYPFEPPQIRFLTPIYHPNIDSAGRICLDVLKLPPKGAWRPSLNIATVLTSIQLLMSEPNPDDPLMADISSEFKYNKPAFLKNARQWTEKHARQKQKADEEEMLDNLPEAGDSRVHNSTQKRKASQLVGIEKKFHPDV
UniProt Q13454: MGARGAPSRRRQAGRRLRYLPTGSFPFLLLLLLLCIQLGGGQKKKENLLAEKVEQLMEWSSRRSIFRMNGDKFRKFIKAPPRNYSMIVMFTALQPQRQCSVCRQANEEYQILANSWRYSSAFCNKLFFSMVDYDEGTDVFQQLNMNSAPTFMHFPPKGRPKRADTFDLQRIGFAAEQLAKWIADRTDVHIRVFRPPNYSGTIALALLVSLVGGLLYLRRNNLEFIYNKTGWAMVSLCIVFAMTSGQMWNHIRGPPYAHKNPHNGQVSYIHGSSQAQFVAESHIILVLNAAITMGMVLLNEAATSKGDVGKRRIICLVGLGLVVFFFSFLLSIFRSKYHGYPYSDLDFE
UniProt Q16881, whole entry, looked up: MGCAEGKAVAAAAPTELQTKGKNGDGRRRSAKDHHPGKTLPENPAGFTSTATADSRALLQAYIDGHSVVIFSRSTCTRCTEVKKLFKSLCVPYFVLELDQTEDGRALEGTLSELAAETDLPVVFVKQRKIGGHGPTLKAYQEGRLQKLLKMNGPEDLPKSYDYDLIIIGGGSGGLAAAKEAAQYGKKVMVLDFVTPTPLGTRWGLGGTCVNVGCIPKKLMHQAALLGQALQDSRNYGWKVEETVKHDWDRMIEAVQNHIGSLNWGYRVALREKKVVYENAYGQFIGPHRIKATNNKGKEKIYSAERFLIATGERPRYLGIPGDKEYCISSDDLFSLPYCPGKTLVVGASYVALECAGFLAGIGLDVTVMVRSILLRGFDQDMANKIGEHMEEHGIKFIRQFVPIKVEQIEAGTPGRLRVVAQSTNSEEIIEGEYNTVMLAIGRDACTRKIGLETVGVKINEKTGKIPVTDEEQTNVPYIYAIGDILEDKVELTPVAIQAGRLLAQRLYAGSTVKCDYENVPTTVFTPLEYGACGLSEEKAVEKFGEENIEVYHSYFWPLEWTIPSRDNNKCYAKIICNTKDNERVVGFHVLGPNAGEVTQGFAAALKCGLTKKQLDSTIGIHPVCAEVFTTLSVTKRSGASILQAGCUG
UniProt O14530: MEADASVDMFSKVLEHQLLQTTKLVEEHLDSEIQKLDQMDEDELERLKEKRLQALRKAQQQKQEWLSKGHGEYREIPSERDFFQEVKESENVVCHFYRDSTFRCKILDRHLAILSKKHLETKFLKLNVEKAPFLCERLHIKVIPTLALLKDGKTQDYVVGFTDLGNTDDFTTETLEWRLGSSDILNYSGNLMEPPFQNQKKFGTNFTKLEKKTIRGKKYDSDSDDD
UniProt P17480: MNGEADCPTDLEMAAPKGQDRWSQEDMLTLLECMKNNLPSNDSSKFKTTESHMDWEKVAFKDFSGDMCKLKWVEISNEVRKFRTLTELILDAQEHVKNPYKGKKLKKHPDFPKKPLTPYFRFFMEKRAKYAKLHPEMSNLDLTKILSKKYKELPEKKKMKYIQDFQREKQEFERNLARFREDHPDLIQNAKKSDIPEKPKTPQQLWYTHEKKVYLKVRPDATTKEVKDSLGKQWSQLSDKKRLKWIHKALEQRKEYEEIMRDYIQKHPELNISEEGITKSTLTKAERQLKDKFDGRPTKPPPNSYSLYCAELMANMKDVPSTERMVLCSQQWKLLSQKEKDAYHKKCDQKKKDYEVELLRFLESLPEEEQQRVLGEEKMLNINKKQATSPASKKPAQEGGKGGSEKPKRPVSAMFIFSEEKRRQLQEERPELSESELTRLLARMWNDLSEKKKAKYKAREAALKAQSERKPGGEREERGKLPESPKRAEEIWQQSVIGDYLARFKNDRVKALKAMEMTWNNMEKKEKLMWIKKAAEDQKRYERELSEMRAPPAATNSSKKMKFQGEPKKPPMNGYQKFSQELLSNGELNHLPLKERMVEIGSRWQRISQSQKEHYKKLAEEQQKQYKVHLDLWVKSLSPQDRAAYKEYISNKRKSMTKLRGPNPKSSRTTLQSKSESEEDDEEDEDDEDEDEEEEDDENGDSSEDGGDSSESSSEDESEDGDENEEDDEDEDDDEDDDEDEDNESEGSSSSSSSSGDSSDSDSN
UniProt Q9BZV1: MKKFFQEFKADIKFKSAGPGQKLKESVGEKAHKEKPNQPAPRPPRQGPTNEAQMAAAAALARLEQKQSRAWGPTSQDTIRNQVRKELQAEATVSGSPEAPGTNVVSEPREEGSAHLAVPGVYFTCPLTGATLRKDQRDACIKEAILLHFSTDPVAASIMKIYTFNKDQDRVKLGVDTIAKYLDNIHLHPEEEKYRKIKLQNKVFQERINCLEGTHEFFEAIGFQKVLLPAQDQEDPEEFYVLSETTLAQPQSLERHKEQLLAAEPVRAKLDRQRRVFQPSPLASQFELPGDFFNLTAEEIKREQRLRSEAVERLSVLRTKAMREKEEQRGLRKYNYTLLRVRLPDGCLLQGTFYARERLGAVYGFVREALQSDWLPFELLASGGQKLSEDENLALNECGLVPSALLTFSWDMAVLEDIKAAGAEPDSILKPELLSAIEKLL
UniProt Q9UGJ1, whole entry, looked up: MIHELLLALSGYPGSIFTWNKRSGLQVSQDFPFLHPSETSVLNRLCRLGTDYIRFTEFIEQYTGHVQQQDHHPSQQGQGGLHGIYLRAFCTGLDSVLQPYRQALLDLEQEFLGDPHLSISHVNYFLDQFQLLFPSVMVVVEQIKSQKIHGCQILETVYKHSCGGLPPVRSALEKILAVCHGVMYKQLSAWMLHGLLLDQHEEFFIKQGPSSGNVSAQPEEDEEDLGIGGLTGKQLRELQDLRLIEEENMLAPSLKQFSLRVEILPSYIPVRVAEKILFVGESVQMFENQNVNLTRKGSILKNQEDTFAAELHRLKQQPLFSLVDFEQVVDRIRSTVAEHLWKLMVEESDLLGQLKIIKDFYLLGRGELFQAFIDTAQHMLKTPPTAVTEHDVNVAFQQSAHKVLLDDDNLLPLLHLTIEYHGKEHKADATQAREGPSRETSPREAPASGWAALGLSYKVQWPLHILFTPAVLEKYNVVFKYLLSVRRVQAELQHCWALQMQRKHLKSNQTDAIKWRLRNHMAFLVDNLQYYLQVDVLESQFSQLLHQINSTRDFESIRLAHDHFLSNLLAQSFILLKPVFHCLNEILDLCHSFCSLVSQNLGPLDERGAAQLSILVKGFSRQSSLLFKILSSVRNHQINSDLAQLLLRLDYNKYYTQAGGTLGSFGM
UniProt Q9GZZ9, whole entry, looked up: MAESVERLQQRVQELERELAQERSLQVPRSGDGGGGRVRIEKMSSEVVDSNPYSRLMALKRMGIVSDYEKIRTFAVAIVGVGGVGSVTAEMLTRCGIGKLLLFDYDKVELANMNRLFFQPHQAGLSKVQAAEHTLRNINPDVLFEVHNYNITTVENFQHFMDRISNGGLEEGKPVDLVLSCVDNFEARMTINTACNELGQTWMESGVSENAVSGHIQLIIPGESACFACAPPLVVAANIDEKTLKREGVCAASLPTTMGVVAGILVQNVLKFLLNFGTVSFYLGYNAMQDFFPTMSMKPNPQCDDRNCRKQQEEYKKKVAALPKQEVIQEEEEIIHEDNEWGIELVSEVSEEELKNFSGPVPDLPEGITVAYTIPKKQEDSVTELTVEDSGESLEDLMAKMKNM
UniProt Q15819: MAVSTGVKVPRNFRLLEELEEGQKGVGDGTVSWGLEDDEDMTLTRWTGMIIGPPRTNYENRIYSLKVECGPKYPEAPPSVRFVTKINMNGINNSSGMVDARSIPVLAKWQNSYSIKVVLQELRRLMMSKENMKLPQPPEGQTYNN
UniProt Q7Z3V4: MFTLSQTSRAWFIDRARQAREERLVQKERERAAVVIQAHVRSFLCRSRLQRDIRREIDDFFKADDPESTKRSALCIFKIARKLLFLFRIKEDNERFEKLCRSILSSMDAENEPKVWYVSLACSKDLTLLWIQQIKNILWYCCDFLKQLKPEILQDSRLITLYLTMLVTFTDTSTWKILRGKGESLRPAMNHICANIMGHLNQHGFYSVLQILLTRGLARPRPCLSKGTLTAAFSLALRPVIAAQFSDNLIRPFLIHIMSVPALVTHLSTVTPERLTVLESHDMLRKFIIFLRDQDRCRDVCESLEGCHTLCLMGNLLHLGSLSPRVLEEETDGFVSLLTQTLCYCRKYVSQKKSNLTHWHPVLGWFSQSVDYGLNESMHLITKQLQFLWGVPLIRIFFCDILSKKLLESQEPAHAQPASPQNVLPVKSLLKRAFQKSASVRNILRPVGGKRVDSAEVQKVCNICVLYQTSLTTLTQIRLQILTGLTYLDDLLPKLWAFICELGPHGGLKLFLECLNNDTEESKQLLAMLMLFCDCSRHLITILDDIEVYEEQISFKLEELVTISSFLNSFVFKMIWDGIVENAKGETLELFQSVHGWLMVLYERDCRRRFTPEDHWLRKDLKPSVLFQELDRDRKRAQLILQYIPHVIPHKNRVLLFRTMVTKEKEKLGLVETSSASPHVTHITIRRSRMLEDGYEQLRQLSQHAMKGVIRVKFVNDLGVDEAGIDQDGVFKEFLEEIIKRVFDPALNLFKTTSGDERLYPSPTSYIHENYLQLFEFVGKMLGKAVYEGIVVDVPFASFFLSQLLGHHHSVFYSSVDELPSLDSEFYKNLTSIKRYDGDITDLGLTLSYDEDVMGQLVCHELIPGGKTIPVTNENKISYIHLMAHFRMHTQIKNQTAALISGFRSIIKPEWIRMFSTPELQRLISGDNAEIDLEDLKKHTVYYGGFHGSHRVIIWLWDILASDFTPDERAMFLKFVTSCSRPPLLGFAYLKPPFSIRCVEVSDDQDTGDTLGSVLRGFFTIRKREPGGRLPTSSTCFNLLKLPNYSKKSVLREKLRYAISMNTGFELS
UniProt Q9UJT0: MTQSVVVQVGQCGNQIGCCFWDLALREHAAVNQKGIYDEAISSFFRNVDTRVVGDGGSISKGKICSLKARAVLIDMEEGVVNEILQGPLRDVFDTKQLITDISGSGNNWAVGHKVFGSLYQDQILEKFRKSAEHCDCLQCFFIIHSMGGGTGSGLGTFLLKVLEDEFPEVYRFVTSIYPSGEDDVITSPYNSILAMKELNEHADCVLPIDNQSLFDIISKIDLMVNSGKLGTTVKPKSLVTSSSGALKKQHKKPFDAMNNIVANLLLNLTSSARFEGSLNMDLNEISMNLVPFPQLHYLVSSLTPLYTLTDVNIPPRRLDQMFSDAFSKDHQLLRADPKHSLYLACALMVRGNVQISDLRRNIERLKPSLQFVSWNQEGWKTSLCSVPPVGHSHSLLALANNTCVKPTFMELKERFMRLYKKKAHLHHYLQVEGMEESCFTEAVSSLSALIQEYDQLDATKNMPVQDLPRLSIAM
UniProt Q96ET8: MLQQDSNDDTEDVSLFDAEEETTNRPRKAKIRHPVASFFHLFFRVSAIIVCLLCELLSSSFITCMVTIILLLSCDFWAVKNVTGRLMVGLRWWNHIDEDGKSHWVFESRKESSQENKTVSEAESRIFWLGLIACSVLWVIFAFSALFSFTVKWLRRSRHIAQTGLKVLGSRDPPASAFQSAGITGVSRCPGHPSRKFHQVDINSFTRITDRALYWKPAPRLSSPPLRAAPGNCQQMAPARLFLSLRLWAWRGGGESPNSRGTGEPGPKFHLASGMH
UniProt P83876: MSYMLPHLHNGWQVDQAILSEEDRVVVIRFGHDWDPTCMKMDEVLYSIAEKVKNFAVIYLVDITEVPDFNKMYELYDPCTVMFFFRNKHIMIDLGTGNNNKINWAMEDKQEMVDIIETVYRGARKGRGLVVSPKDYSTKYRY

Columns and labels:
Experiment in all cases: log2 fold change, soluble protein after heating vs DMSO (PISA); higher = thermal stabilisation; K562 lysate, 10 uM; active = over 0.2 and 3.5 SD of the protein, either way, in both replicates (recomputed)
alvocidib = compound: CN1CC[C@H](c2c(O)cc(O)c3c(=O)cc(-c4ccccc4Cl)oc23)[C@H](O)C1 [alvocidib]
Outline: (§1)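 Dounce homogenisation of K562 pellets in PBS pH 7.4 with 1 mM MgCl2 produced a crude extract, used at 1 mg/mL protein. Exposure to 10 μM compound lasted 30 min, and aliquots were then heated for 3 min across 48°C-58°C, pooled and brought to 0.5% NP-40 at 4°C. The supernatant after 21,000xg for 90 min was quantified by TMTpro 16plex LC-MS/MS with channel sums equalised. Duplicate values are given as log-two fold change in thermal stability relative to solvent controls.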

Tubastatin A = compound: CN1CCc2c(c3ccccc3n2Cc2ccc(C(=O)NO)cc2)C1 [Tubastatin A]
Outline: as §1

[1] = compound: CNC(=O)C1=CC=CC=C1NC2=NC(=NC=C2Cl)NC3=C(C=C(C=C3)N4CCOCC4)OC
Outline: as §1

defactinib = compound: CNC(=O)c1ccc(Nc2ncc(C(F)(F)F)c(NCc3nccnc3N(C)S(C)(=O)=O)n2)cc1 [defactinib]
Outline: as §1

[2] = compound: CNc1nc(-c2ccc3c(N)n[nH]c3c2)cc(N2C[C@@H](C(=O)NC3CCCCC3)CC[C@H]2C)n1
Outline: as §1

encorafenib = compound: COC(=O)N[C@@H](C)CNc1nccc(-c2cn(C(C)C)nc2-c2cc(Cl)cc(NS(C)(=O)=O)c2F)n1 [encorafenib]
Outline: as §1

[3] = compound: COC(=O)[C@H](CCSC)NC(=O)C1=C(C=C(C=C1)NC[C@H](CS)N)C2=CC=CC=C2
Outline: as §1

alisertib = compound: COc1cc(Nc2ncc3c(n2)-c2ccc(Cl)cc2C(c2c(F)cccc2OC)=NC3)ccc1C(=O)O [alisertib]
Outline: as §1

[4] = compound: COc1cc2nc(-c3cc(F)ccc3O)nc(N[C@@H]3CNC[C@H]3C(C)(C)O)c2cc1OC
Outline: as §1

gefitinib = compound: COc1cc2ncnc(Nc3ccc(F)c(Cl)c3)c2cc1OCCCN1CCOCC1 [gefitinib]
Outline: as §1

Measured: log2 fold change

TXNRD2 (UniProt Q9NNW7)
inactive: alvocidib -0.006 | Tubastatin A 0.021 | [1] 0.018 | defactinib 0.015 | [2] 0.007 | encorafenib 0.039 | [3] -0.034 | alisertib 0 | [4] 0.008 | gefitinib -0.064

UBE2M (UniProt M0QX69)
inactive: alvocidib -0.103

UCHL3 (UniProt P15374)
inactive: alvocidib 0.014 | Tubastatin A -0.004 | [1] -0.017 | defactinib 0.042 | [2] -0.108 | encorafenib 0.007 | [3] -0.027 | alisertib 0.029 | [4] -0.004 | gefitinib -0.019

TUBGCP6 (UniProt Q96RT7)
inactive: alvocidib -0.005 | Tubastatin A -0.196 | [1] 0.027 | defactinib -0.239 | [2] 0.057 | encorafenib -0.047 | [3] 0.071 | alisertib -0.099 | [4] 0.107 | gefitinib 0.039

UBE2T (UniProt Q9NPD8)
inactive: alvocidib -0.01 | Tubastatin A 0.003 | [1] 0.018 | defactinib -0.036 | [2] 0.024 | encorafenib -0.003 | [3] -0.061 | alisertib 0 | [4] 0.002 | gefitinib -0.028

UBXN1 (UniProt Q04323)
inactive: alvocidib -0.043 | Tubastatin A 0.016 | [1] 0.01 | defactinib 0.003 | [2] -0.011 | encorafenib 0.019 | [3] -0.092 | alisertib 0.018 | [4] 0.01 | gefitinib 0.053

TUBB1 (UniProt Q9H4B7)
inactive: alvocidib 0.026 | Tubastatin A -0.059 | [1] 0.021 | defactinib 0.07 | [2] -0.005 | encorafenib -0.015 | [3] 0.071 | alisertib -0.013 | [4] -0.034 | gefitinib -0.047

TUSC3 isoform 2 (UniProt Q13454)
inactive: alvocidib -0.08 | Tubastatin A 0.046 | [1] -0.049 | defactinib -0.013 | [2] 0.056 | encorafenib 0.003 | [3] -0.01 | alisertib 0.037 | [4] -0.005 | gefitinib -0.045

UBAP2 (UniProt Q5T6F2)
inactive: alvocidib -0.081 | Tubastatin A 0.026 | [1] -0.026 | defactinib -0.003 | [2] 0.005 | encorafenib 0.033 | [3] -0.021 | alisertib 0.005 | [4] 0.011 | gefitinib 0.014

TXNRD1 (UniProt Q16881)
inactive: alvocidib -0.027 | Tubastatin A 0.054 | [1] -0.022 | defactinib -0.006 | [2] 0.034 | encorafenib -0.02 | [3] -0.011 | alisertib 0.001 | [4] 0.007 | gefitinib 0.008

UBR3 isoform 4 (UniProt Q6ZT12)
inactive: alvocidib 0.012 | Tubastatin A -0.155 | [1] 0.074 | defactinib -0.062 | [2] -0.03 | encorafenib -0.006 | [3] 0.054 | alisertib -0.005 | [4] 0.005 | gefitinib 0.018

TUT7 (UniProt Q5VYS8)
inactive: alvocidib 0.063 | Tubastatin A 0.03 | [1] 0.032 | defactinib 0.111 | [2] 0.016 | encorafenib -0.032 | [3] 0.06 | alisertib -0.025 | [4] 0.108 | gefitinib 0.019

UBE2I (UniProt P63279)
inactive: alvocidib 0.014 | Tubastatin A 0.054 | [1] -0.003 | defactinib -0.005 | [2] 0.053 | encorafenib -0.032 | [3] -0.034 | alisertib 0.04 | [4] 0.005 | gefitinib -0.062

U2AF1 isoform 2 (UniProt Q01081)
inactive: alvocidib -0.055 | Tubastatin A -0.083 | [1] -0.007 | defactinib -0.038 | [2] 0.003 | encorafenib 0.021 | [3] -0.028 | alisertib 0.025 | [4] -0.011 | gefitinib -0.076

UBFD1 (UniProt O14562)
inactive: alvocidib -0.041 | Tubastatin A 0.051 | [1] -0.016 | defactinib -0.014 | [2] 0.034 | encorafenib 0 | [3] -0.016 | alisertib -0.008 | [4] 0.018 | gefitinib 0.002

TXN (UniProt P10599)
inactive: alvocidib -0.005 | Tubastatin A 0.051 | [1] -0.034 | defactinib 0.034 | [2] -0.003 | encorafenib -0.024 | [3] -0.045 | alisertib 0.005 | [4] -0.001 | gefitinib 0.002

TXNDC9 (UniProt O14530)
inactive: alvocidib -0.04 | Tubastatin A 0.033 | [1] 0.026 | defactinib -0.016 | [2] 0.02 | encorafenib -0.011 | [3] -0.039 | alisertib -0.019 | [4] -0.022 | gefitinib -0.004

UBTF (UniProt P17480)
inactive: alvocidib 0.026 | Tubastatin A -0.135 | [1] -0.008 | defactinib 0.007 | [2] 0.004 | encorafenib -0.002 | [3] 0.073 | alisertib 0.055 | [4] -0.018 | gefitinib 0.045

TUBB4B (UniProt P68371)
inactive: alvocidib 0.032 | Tubastatin A -0.017 | [1] 0.024 | defactinib 0.018 | [2] -0.039 | encorafenib -0.03 | [3] 0.067 | alisertib 0.019 | [4] -0.013 | gefitinib -0.028

UBXN6 (UniProt Q9BZV1)
inactive: alvocidib 0.014 | Tubastatin A -0.087 | [1] 0.03 | defactinib -0.019 | [2] 0.055 | encorafenib 0.042 | [3] 0.104 | alisertib 0.017 | [4] 0.006 | gefitinib 0.006

TUBGCP4 (UniProt Q9UGJ1)
inactive: alvocidib 0 | Tubastatin A -0.081 | [1] 0.007 | defactinib -0.023 | [2] -0.025 | encorafenib -0.049 | [3] 0.047 | alisertib -0.007 | [4] -0.018 | gefitinib -0.043

Quoted at random: 2 entries already listed
UBXN6 (UniProt Q9BZV1)
inactive: alvocidib 0.014 | Tubastatin A -0.087 | [1] 0.03 | defactinib -0.019 | [2] 0.055 | encorafenib 0.042 | [3] 0.104 | alisertib 0.017 | [4] 0.006 | gefitinib 0.006

TXNDC9 (UniProt O14530)
inactive: alvocidib -0.04 | Tubastatin A 0.033 | [1] 0.026 | defactinib -0.016 | [2] 0.02 | encorafenib -0.011 | [3] -0.039 | alisertib -0.019 | [4] -0.022 | gefitinib -0.004

Continued:

TUBA4A (UniProt C9JQ00)
inactive: alvocidib 0.074

UBR4 (UniProt Q5T4S7)
inactive: alvocidib 0.009 | Tubastatin A -0.06 | [1] 0.006 | defactinib 0.006 | [2] -0.034 | encorafenib 0.003 | [3] 0.018 | alisertib 0.001 | [4] 0.001 | gefitinib -0.029

UBA5 (UniProt Q9GZZ9)
inactive: alvocidib -0.001 | Tubastatin A -0.012 | [1] -0.011 | defactinib 0.024 | [2] -0.05 | encorafenib -0.004 | [3] 0 | alisertib 0.02 | [4] -0.004 | gefitinib 0.052

UBL7 (UniProt Q96S82)
inactive: alvocidib -0.009 | Tubastatin A 0.077 | [1] -0.039 | defactinib 0.078 | [2] -0.026 | encorafenib 0.03 | [3] -0.033 | alisertib 0.04 | [4] -0.02 | gefitinib -0.052

UBE2V2 (UniProt Q15819)
inactive: alvocidib 0.015 | Tubastatin A 0.061 | [1] 0.013 | defactinib 0.024 | [2] -0.016 | encorafenib -0.015 | [3] -0.029 | alisertib 0.017 | [4] -0.001 | gefitinib 0.037

UBE3B (UniProt Q7Z3V4)
inactive: alvocidib -0.07 | Tubastatin A -0.134 | [1] 0.136 | defactinib 0.028 | [2] 0.008 | encorafenib 0.102 | [3] -0.047 | alisertib 0 | [4] 0.006 | gefitinib 0.044

TUBE1 (UniProt Q9UJT0)
inactive: alvocidib 0.06 | Tubastatin A -0.001 | [1] 0.062 | defactinib 0.107 | [2] -0.027 | encorafenib 0.036 | [3] -0.108 | alisertib 0.052 | [4] -0.009 | gefitinib -0.005

UBQLN2 (UniProt Q9UHD9)
inactive: alvocidib -0.018 | Tubastatin A 0.015 | [1] -0.014 | defactinib 0.058 | [2] 0.069 | encorafenib 0.008 | [3] -0.033 | alisertib -0.052 | [4] -0.015 | gefitinib -0.13

TVP23C (UniProt Q96ET8)
inactive: alvocidib -0.236

TXNL4A (UniProt P83876)
inactive: alvocidib -0.09 | Tubastatin A 0.02 | [1] -0.035 | defactinib -0.017 | [2] 0.027 | encorafenib -0.016 | [3] -0.051 | alisertib 0.012 | [4] 0.045 | gefitinib 0.012

TXNDC12 (UniProt O95881)
inactive: alvocidib 0.016 | Tubastatin A 0.02 | [1] -0.007 | defactinib 0.019 | [2] -0.058 | encorafenib 0.009 | [3] 0 | alisertib 0.018 | [4] -0.005 | gefitinib 0.001
